## Percent effect of library compounds

Mtb cholesterol medium: 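Whole-cell growth test on Mycobacterium tuberculosis, read after 4 days in a medium based on cholesterol and the lipid DPPC; the read-out is not stated. Compounds at 50 µM. Direction is inferred from retests: higher values go with more growth inhibition. Size under these conditions: about 69,000 compounds, about 370 of them at 50% or above in at least one test.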
Mtb glucose medium: 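Phenotypic screen: M. tuberculosis growth, glucose 7H9 medium, 3 days; the read-out is not stated. Concentration: 50 µM. Higher reads as more growth inhibition (inferred: compounds with an IC50 in retests scored well above the rest). About 69,000 compounds were tested under these conditions; 1.1% (about 760) showed 50% or more at least once.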

Each number is a percent effect as filed. The record does not define 0% and 100%; most values in the screen are far below 50% and negative numbers occur (in some assays of this library far below -100). The compounds are a random part of those screened. Two or more numbers in one place are separate tests of the same structure; such repeats can differ widely.

{"structure": "CCCN(C)S(=O)(=O)NC(=O)c1ccc(CC)o1", "Mtb cholesterol medium": 13.07, "Mtb glucose medium": "16.76 & -2.415"}
{"structure": "Cc1nccn1-c1cncc(C2CCCN2Cc2ccccc2)n1", "stereo": "stereo not drawn", "Mtb cholesterol medium": -0.5247, "Mtb glucose medium": -38.26}
{"structure": "CCSc1nc(N)c(NC(=O)c2ccc(OC)c(OC)c2)c(=O)[nH]1", "Mtb cholesterol medium": -22.78, "Mtb glucose medium": "-12.45 & -1.803"}
{"structure": "NC(=O)c1cccc(C(=O)N2CCCC(n3ccnc3)C2)c1", "stereo": "stereo not drawn", "Mtb cholesterol medium": 16.28, "Mtb glucose medium": "25.92 & 0.3579"}
{"structure": "O=C(Cc1ccsc1)N1CCC(Cn2cc(CCO)nn2)CC1", "Mtb cholesterol medium": -8.373, "Mtb glucose medium": 0.4837}
{"structure": "COCCNS(=O)(=O)c1ccc(Cl)c(C(=O)N(C)Cc2ccsc2)c1", "Mtb cholesterol medium": -21.54, "Mtb glucose medium": -25.94}
{"structure": "COc1ncccc1C(=O)N1CCCC1c1c(C)nn(C)c1Cl", "stereo": "stereo not drawn", "Mtb cholesterol medium": -5.608, "Mtb glucose medium": -8.045}
{"structure": "c1cc(CN2CCC3(CC2)COC(COCC2CC2)C3)co1", "stereo": "stereo not drawn", "Mtb cholesterol medium": -9.682, "Mtb glucose medium": -15.91}
{"structure": "O=C(O)C(F)(F)F.O=C(O)C(F)(F)F.[H][C@@]12CCCO[C@]1([H])[C@H](Oc1ccccn1)CN2c1nnc(C)s1", "Mtb cholesterol medium": -26.48, "Mtb glucose medium": "-25.04 & -6.282"}
{"structure": "CNC(=O)CS(=O)(=O)Cc1cc(Cl)c2c(c1)OCCO2", "Mtb cholesterol medium": -5.351, "Mtb glucose medium": 4.718}
{"structure": "Fc1cccc(-c2nnn3c2COC(CNCc2cccs2)C3)c1.O=C(O)C(F)(F)F", "stereo": "stereo not drawn", "Mtb cholesterol medium": -2.237, "Mtb glucose medium": "2.575 & 10.66"}
{"structure": "CNC(=O)CC1COCCN1C(=O)C1(c2ccc(Cl)cc2)CCC1", "stereo": "stereo not drawn", "Mtb cholesterol medium": -3.097, "Mtb glucose medium": -28.78}
{"structure": "C1CCN(CCOC2CCNCC2)CC1", "Mtb cholesterol medium": -4.777, "Mtb glucose medium": "-7.535 & -8.334"}
{"structure": "O=S(=O)(Cc1cc(-c2ccccc2)no1)CC1CCCO1", "stereo": "stereo not drawn", "Mtb cholesterol medium": -17.2, "Mtb glucose medium": -12.17}
{"structure": "Cc1ncc(CN2CCCC(O)(c3ccc(F)cc3)CC2)n1C.O=C(O)CC(O)(CC(=O)O)C(=O)O", "stereo": "stereo not drawn", "Mtb cholesterol medium": "0.6737 & -6.749", "Mtb glucose medium": 14.75}
{"structure": "CCOC(=O)N1CCN(c2nc(NC3CC3)c3ccccc3n2)CC1.Cl", "Mtb cholesterol medium": "-7.313 & 11.51", "Mtb glucose medium": 13.23}
{"structure": "Cc1cc(CN2CCN(C(=O)NC(C)c3cccs3)CC2)on1", "stereo": "stereo not drawn", "Mtb cholesterol medium": -13.24, "Mtb glucose medium": -15.96}
{"structure": "Cc1nccn1C1CCCN(C(=O)c2ccc(N(C)C)nn2)C1", "stereo": "stereo not drawn", "Mtb cholesterol medium": -4.181, "Mtb glucose medium": -24.8}
{"structure": "Cc1cc(C)n(CC2CCCCN2C(=O)c2ccsc2)n1", "stereo": "stereo not drawn", "Mtb cholesterol medium": 11.53, "Mtb glucose medium": -18.63}
{"structure": "Cn1nnnc1SCCNC(=O)C1CCN(C(=O)C2CCC2)CC1", "Mtb cholesterol medium": -6.214, "Mtb glucose medium": -1.188}
{"structure": "Cc1nc2c(c(=O)n1C)CCN(C(=O)Cn1cccc1)CC2", "Mtb cholesterol medium": 0.4541, "Mtb glucose medium": 7.735}
{"structure": "CSCc1noc(CN2CCCCC2CCc2ccc(O)cc2)n1", "stereo": "stereo not drawn", "Mtb cholesterol medium": -7.656, "Mtb glucose medium": 6.492}
{"structure": "COCCO[C@@H]1CCN(c2cc(OC)ncn2)[C@H]1Cc1cnn(C)c1", "Mtb cholesterol medium": -10.98, "Mtb glucose medium": "25.65 & 2.135"}
{"structure": "O=C(O)C(F)(F)F.O=C(O)C(F)(F)F.O=C1COC2(CCN(Cc3cccs3)CC2)CN1c1cccnc1", "Mtb cholesterol medium": 5.992, "Mtb glucose medium": -23.65}
{"structure": "Cc1cccc(-c2noc(CN3CCC(N4CCNC4=O)CC3)n2)c1", "Mtb cholesterol medium": -1.182, "Mtb glucose medium": 3.652}
{"structure": "Cc1cccnc1Nc1nccc(C2CN(CC(N)=O)C2)n1", "Mtb cholesterol medium": -10.99, "Mtb glucose medium": 9.68}
{"structure": "Cc1cc(C)nc(N2CCC(Cn3cc(C(=O)N(C)C)cn3)CC2)n1", "Mtb cholesterol medium": "-11.01 & -6.186", "Mtb glucose medium": -3.823}
{"structure": "[H][C@@]12C[C@H](C(=O)N3CCCCO3)CN(C(=O)c3ccnnc3)[C@]1([H])CCO2", "Mtb cholesterol medium": -12.95, "Mtb glucose medium": "-6.418 & -31.86"}
{"structure": "CC/N=c1/c(NC(=O)C2CC2)c(O)oc2ccccc12", "Mtb cholesterol medium": -29.6, "Mtb glucose medium": -8.799}
{"structure": "CCn1cc(CN2CCN(CC(O)c3ccc(C)cc3C)CC2)c(C)n1", "stereo": "stereo not drawn", "Mtb cholesterol medium": 5.305, "Mtb glucose medium": 5.447}
{"structure": "O=C1COC2(CCN(C(=O)c3ccoc3)CC2)CN1Cc1cccnc1", "Mtb cholesterol medium": "-1.66 & -12.96", "Mtb glucose medium": 8.77}
{"structure": "COCCc1nc(CN2CC(C)(c3ccccc3)CCC2=O)no1", "stereo": "stereo not drawn", "Mtb cholesterol medium": "-11.81 & -19.62", "Mtb glucose medium": -16.29}
{"structure": "COCCN1CCC2(COCc3cnc(-c4ccccc4)nc32)C1.O=C(O)C(F)(F)F", "stereo": "stereo not drawn", "Mtb cholesterol medium": 18.98, "Mtb glucose medium": 5.13}
{"structure": "CCN1CCOCC12CCN(c1ccc(C#N)cc1)CC2.O=C(O)C(F)(F)F", "Mtb cholesterol medium": 20.95, "Mtb glucose medium": "7.092 & -1.213"}
{"structure": "O=C1NCCCC12CCN(S(=O)(=O)N1CCOCC1)C2", "stereo": "stereo not drawn", "Mtb cholesterol medium": -39.03, "Mtb glucose medium": -5.431}
{"structure": "Cc1oc(-c2cccc(F)c2)nc1CN1CCOCS1(=O)=O", "Mtb cholesterol medium": 1.151, "Mtb glucose medium": "4.712 & 11.67"}
{"structure": "CSc1ccc(NCC(=O)Nc2c(C)nn(C)c2C)cc1F", "Mtb cholesterol medium": -7.524, "Mtb glucose medium": 9.934}
{"structure": "c1cncc(CN2CCCC3(COCCN(c4nccs4)C3)C2)c1", "stereo": "stereo not drawn", "Mtb cholesterol medium": "-5.327 & 16.51", "Mtb glucose medium": -28.67}
{"structure": "CN(C)c1ncc(-c2cccc(F)c2)c(C2CNCCO2)n1.Cl", "stereo": "stereo not drawn", "Mtb cholesterol medium": 6.309, "Mtb glucose medium": 14.59}
{"structure": "CC(=O)NCCCOc1c(C)cccc1Cl", "Mtb cholesterol medium": "4.275 & -7.375", "Mtb glucose medium": 11.23}

Measurements from “University of Dundee, Small-Polar-MMV Screening Library” (2021), ChEMBL document CHEMBL3988442.